No constants are given. Whether binding was seen depends on the method and setting. Some results given as binding are weak or reduced against the parent protein; the word gives no strength. Where a sequence is shown, tags or fusion partners need not be part of it.

By UniProt entry, the sequences of proteins in these tests, tags left out.
UniProt Q12983: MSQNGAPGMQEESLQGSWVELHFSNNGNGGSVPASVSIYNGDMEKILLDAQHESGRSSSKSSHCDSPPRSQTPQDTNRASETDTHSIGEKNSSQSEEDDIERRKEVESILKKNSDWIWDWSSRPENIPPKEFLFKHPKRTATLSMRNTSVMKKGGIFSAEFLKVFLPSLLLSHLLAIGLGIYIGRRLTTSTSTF
UniProt O60238: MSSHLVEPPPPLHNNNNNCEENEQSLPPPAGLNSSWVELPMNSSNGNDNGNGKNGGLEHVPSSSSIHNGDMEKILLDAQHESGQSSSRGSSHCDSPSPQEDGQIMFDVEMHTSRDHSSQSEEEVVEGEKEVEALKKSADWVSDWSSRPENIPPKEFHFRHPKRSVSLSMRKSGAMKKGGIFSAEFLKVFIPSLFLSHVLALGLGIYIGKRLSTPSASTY

Our source for the binding values is PMC10575892.

Assay [1] addresses human BNIP3 (yeast two-hybrid fusion) (human) (UniProt Q12983). Description: two-hybrid; Matchmaker Gold Yeast Two-Hybrid System; baits in pGBKT7 (Y2H Gold), preys in pGADT7 (Y187), mated; spotted on SD-leu-trp and SD-leu-trp-his plates, 30 °C.
The target of assay [2] is human NIX (yeast two-hybrid fusion) (human) (UniProt O60238). Described as above.

B1: full length human PPTC7 (yeast two-hybrid fusion) (enzyme, UniProt Q8NI37 1-304)
chain: MFSVLSYGRLVARAVLGGLSQTDPRAGGGGGGDYGLVTAGCGFGKDFRKGLLKKGACYGDDACFVARHRSADVLGVADGVGGWRDYGVDPSQFSGTLMRTCERLVKEGRFVPSNPIGILTTSYCELLQNKVPLLGSSTACIVVLDRTSHRLHTANLGDSGFLVVRGGEVVHRSDEQQHYFNTPFQLSIAPPEAEGVVLSDSPDAADSTSFDVQLGDIILTATDGLFDNMPDYMILQELKKLKNSNYESIQQTARSIAEQAHELAYDPNYMSPFAQFACDNGLNVRGGKPDDITVLLSIVAEYTD
On to B1, for which the binding entry in assay [1] and in assay [2] was “binds” throughout.
